Results: doi:10.1101/2022.03.11.483950
These are yes or no findings as the source states them, for the method shown. Some binding calls cover weakened binding; strength is not graded here.

T1: PplT (prokaryotic phospholipid translocator) protein of Escherichia coli (E. coli) (UniProt P75770)
T1 sequence: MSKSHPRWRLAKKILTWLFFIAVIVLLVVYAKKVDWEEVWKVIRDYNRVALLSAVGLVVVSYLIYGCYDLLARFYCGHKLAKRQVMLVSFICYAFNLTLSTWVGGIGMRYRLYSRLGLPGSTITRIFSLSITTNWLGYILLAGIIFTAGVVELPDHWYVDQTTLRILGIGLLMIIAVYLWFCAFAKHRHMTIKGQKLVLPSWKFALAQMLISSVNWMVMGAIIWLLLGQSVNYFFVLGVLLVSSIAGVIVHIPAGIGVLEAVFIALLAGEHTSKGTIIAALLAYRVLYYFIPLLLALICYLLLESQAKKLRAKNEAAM

B1: PgpC (enzyme, UniProt P0AD42 1-211)
chain: MATHERRVVFFDLDGTLHQQDMFGSFLRYLLRRQPLNALLVLPLLPIIAIALLIKGRAARWPMSLLLWGCTFGHSEARLQTLQADFVRWFRDNVTAFPLVQERLTTYLLSSDADIWLITGSPQPLVEAVYFDTPWLPRVNLIASQIQRGYGGWVLTMRCLGHEKVAQLERKIGTPLRLYSGYSDSNQDNPLLYFCQHRWRVTPRGELQQLE
B2: cardiolipin synthase ClsB (enzyme, UniProt P0AA84 1-413)
chain: MKCSWREGNKIQLLENGEQYYPAVFKAIGEAQERIILETFIWFEDDVGKQLHAALLAAAQRGVKAEVLLDGYGSPDLSDEFVNELTAAGVVFRYYDPRPRLFGMRTNVFRRMHRKIVVIDARIAFIGGLNYSAEHMSSYGPEAKQDYAVRLEGPIVEDILQFELENLPGQSAARRWWRRHHKAEENRQPGEAQVLLVWRDNEEHRDDIERHYLKMLTQARREVIIANAYFFPGYRFLHALRKAARRGVRIKLIIQGEPDMPIVRVGARLLYNYLVKGGVQVFEYRRRPLHGKVALMDDHWATVGSSNLDPLSLSLNLEANVIIHDRHFNQTLRDNLNGIIAADCQQVDETMLPKRTWWNLTKSVLAFHFLRHFPALVGWLPAHTPRLAQVDPPAQPTMETQDRVETENTGVKP
B3: PgpB (enzyme, UniProt P0A924 1-254)
chain: MRSIARRTAVGAALLLVMPVAVWISGWRWQPGEQSWLLKAAFWVTETVTQPWGVITHLILFGWFLWCLRFRIKAAFVLFAILAAAILVGQGVKSWIKDKVQEPRPFVIWLEKTHHIPVDEFYTLKRAERGNLVKEQLAEEKNIPQYLRSHWQKETGFAFPSGHTMFAASWALLAVGLLWPRRRTLTIAILLVWATGVMGSRLLLGMHWPRDLVVATLISWALVAVATWLAQRICGPLTPPAEENREIAQREQES
B4: PgpA (enzyme, UniProt P18200 1-172)
chain: MTILPRHKDVAKSRLKMSNPWHLLAVGFGSGLSPIVPGTMGSLAAIPFWYLMTFLPWQLYSLVVMLGICIGVYLCHQTAKDMGVHDHGSIVWDEFIGMWITLMALPTNDWQWVAAGFVIFRILDMWKPWPIRWFDRNVHGGMGIMIDDIVAGVISAGILYFIGHHWPLGILS

These binders were tested against T1, PplT (prokaryotic phospholipid translocator) protein of Escherichia coli (E. coli) (assay: two-hybrid).
For B1, the binding was “binds”.
For B2, the binding was “binds”.
For B3, the binding was “binds”.
B4 was tested, and the binding was “binds”.
